Source: PubChem BioAssay AID200 (DTP/NCI, 2004)
The list is a part of this screen's results and no random one: it gathers tests that were run many times, whatever their T/C, doses with no T/C, and many T/C values between a quarter and a half above the control. Further doses and runs are listed elsewhere. T/C is the treated group as % of the vehicle group. Some entries give survivors of the animals treated and no T/C: the source holds a T/C of zero for them, seemingly a mark for toxic or unscored doses. Some doses without a T/C left all or most animals alive at the check, yet need not have been tolerated: the source hardly ever lists a survival T/C far under the control, and the zero likely stands for such cases as well. Survivors were counted at the toxicity check, usually on the fifth day, unless a day is given; later deaths do not show. Schedule codes are those of the source, taken here to give the interval after Q, in days (D) or hours (H), and the number of doses after X. Some doses were run more than once; the values are given in rising order. Where survival is the endpoint, the PubChem record calls one and a half times the control and up active, and a quarter to a half above the control has no call in these data; cut-offs in other NCI protocols can differ. Some T/C values are followed by the survivors on the day toxicity was checked, most often the fifth; without a count, all were alive then. Where a SMILES comes first, the peptide text is derived from it. Bridges are numbered along the chain shown (N, C = ends).

System: B6C3F1 mice, B16 melanoma ip, median survival T/C
Experiment: NCI In Vivo Anticancer Drug Screen. Data for tumor model B16 Melanoma (intraperitoneal) in B6C3F1 mice
Details: T/C endpoint: median survival time, higher T/C = longer survival
How it was run: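 Tumor-bearing mice received test compound; a separate group got vehicle only. Survival was then compared, with results reported as treated over control.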

[1] = dose: 100.0 mg/kg/injection, schedule: Q01DX009 (ip), vehicle: saline with Tween-80
[2] = dose: 50.0 mg/kg/injection, schedule: Q01DX009 (ip), vehicle: saline with Tween-80
[3] = dose: 200.0 mg/kg/injection, schedule: Q01DX009 (ip), vehicle: saline
[4] = dose: 400.0 mg/kg/injection, schedule: Q01DX009 (ip), vehicle: saline
[5] = dose: 12.5 mg/kg/injection, schedule: Q01DX009 (ip), vehicle: Klucel (hydroxypropylcellulose) (HPC)
[6] = dose: 400.0 mg/kg/injection, schedule: Q01DX009 (ip), vehicle: saline with Tween-80
[7] = dose: 200.0 mg/kg/injection, schedule: Q01DX009 (ip), vehicle: saline with Tween-80
[8] = dose: 12.0 mg/kg/injection, schedule: Q01DX009 (ip), vehicle: distilled water + Tween-80

Compound: CNCCN=c1ccc2c3c1c(O)c1c(O)ccc(=O)c1c3[nH]n2CCNCCO
- survivor count (dose: 6.0 mg/kg/injection, schedule: Q01DX009 (ip), vehicle: water): 10 of 10
- survivor count (dose: 6.25 mg/kg/injection, schedule: Q01DX009 (ip), vehicle: water): 10 of 10
- survivor count (dose: 12.0 mg/kg/injection, schedule: Q01DX009 (ip), vehicle: water): 8 of 10
- survivor count (dose: 12.5 mg/kg/injection, schedule: Q01DX009 (ip), vehicle: water): 10 of 10
- survivor count (dose: 25.0 mg/kg/injection, schedule: Q01DX009 (ip), vehicle: water): 2 of 10
- survivor count (dose: 50.0 mg/kg/injection, schedule: Q01DX009 (ip), vehicle: water): 0 of 10

Compound: CC[PH+](CC)CC[S-].CC[PH+](CC)CC[S-].[Au+].[Au+]
- survivor count (dose: 80.0 mg/kg/injection, schedule: Q01DX009 (ip), vehicle: Klucel (hydroxypropylcellulose) (HPC)): 9 of 10

Compound: CCC(C)C1NC(=O)C(CC(C)C)NC(=O)C(C(C)C)NC(=O)C2CSSCC(NC1=O)C(=O)N2 (stereo not drawn) (cyclo(CCVLI); disulfide 1-2; configuration not given here)
- survivor count (dose: 250.0 micrograms/kg/injection, schedule: Q01DX009 (ip), vehicle: Klucel (hydroxypropylcellulose) (HPC)): 9 of 10

Compound: C(=C\c1nc2ccccc2[nH]1)/c1nc2ccccc2[nH]1
- survivor count [1]: 10 of 10

Compound: N#CN=[N+]([O-])c1ccc(C(=O)O)cc1
- survivor count (dose: 60.0 mg/kg/injection, schedule: Q01DX009 (ip), vehicle: Klucel (hydroxypropylcellulose) (HPC)): 2 of 10 and 10 of 10

Compound: O=CC(NC(=O)N(CCF)N=O)C(O)C(O)C(O)CO (stereo not drawn)
- T/C (dose: 7.5 mg/kg/injection, schedule: Q01DX001 (ip), vehicle: saline): 127 % of control
- T/C (dose: 15.0 mg/kg/injection, schedule: Q01DX001 (ip), vehicle: saline): 140 % of control

Compound: Cc1cc2c(c3oc(C4(C)OC4C4OC4C)cc(=O)c13)C(=O)c1c(O)c(C3CC(C)(N(C)C)C(O)C(C)O3)cc(C3CC(N(C)C)C(O)C(C)O3)c1C2=O (stereo not drawn)
- T/C (dose: 1.0 micrograms/kg/injection, schedule: Q01DX009 (ip), vehicle: Klucel (hydroxypropylcellulose) (HPC)): 128 and 130 % of control
- T/C (dose: 2.0 micrograms/kg/injection, schedule: Q01DX009 (ip), vehicle: Klucel (hydroxypropylcellulose) (HPC)): 145 % of control [9 of 10 alive]
- T/C (dose: 4.0 micrograms/kg/injection, schedule: Q01DX009 (ip), vehicle: Klucel (hydroxypropylcellulose) (HPC)): 125 % of control
- survivor count (dose: 8.0 micrograms/kg/injection, schedule: Q01DX009 (ip), vehicle: Klucel (hydroxypropylcellulose) (HPC)): 6 of 10 and 10 of 10
- survivor count (dose: 20.0 micrograms/kg/injection, schedule: Q01DX009 (ip), vehicle: saline): 10 of 10
- survivor count (dose: 40.0 micrograms/kg/injection, schedule: Q01DX009 (ip), vehicle: saline): 10 of 10
- survivor count (dose: 80.0 micrograms/kg/injection, schedule: Q01DX009 (ip), vehicle: saline): 9 of 10
- survivor count (dose: 160.0 micrograms/kg/injection, schedule: Q01DX009 (ip), vehicle: saline): 6 of 10
- survivor count (dose: 320.0 micrograms/kg/injection, schedule: Q01DX009 (ip), vehicle: saline): 0 of 10

Compound: CC(=O)Nc1ccc(/C=N/Nc2ccc([N+](=O)[O-])cn2)cc1
- survivor count [2]: 10 of 10

Compound: O=C1CCC(=O)N1CO
- T/C [3]: 133 % of control
- T/C [4]: 137 % of control [9 of 10 alive]

Compound: c1ccc2c3c(ccc2c1)Sc1ccc2ccccc2c1N3
- T/C (dose: 100.0 mg/kg/injection, schedule: Q01DX009 (ip), vehicle: saline): 128 % of control
- T/C [3]: 125 % of control
- T/C [4]: 147 % of control

Compound: NC(=O)Oc1cc(OC(N)=O)cc(N(CCCl)CCCl)c1
- T/C [5]: 145 % of control

Compound: Oc1ccc(/C=N/N=C/c2ccc(O)c(O)c2)cc1O
- survivor count [6]: 8 of 10

Compound: CCCCCCCC(=O)O[C@H]1[C@H]2[C@@H](CC1(C)C)C(=O)[C@]13O[C@H]1C(=O)[C@]1(CO1)[C@]23C
- survivor count (dose: 2.5 mg/kg/injection, schedule: Q01DX009 (ip), vehicle: saline with Tween-80): 10 of 10
- survivor count (dose: 5.0 mg/kg/injection, schedule: Q01DX009 (ip), vehicle: saline with Tween-80): 10 of 10
- survivor count (dose: 10.0 mg/kg/injection, schedule: Q01DX009 (ip), vehicle: saline with Tween-80): 10 of 10

Compound: COc1cccc2c1C(=O)c1c(O)c3c(c(O)c1C2=O)C[C@@](O)(C(C)=O)C[C@@H]3OC1CC(N(CCO)Cc2ccccc2)C(O)C(C)O1 (stereo partly drawn)
- T/C (dose: 50.0 mg/kg/injection, schedule: Q01DX001 (ip), vehicle: water): 141 % of control
- T/C (dose: 100.0 mg/kg/injection, schedule: Q01DX001 (ip), vehicle: water): 143 % of control
- survivor count (dose: 200.0 mg/kg/injection, schedule: Q01DX001 (ip), vehicle: water): 6 of 10

Compound: O=C1NC(O)c2ccccc2O1 (stereo not drawn)
- survivor count [6]: 9 of 10

Compound: Cc1[nH]ccc(=O)c1O
- survivor count (dose: 512.0 mg/kg/injection, schedule: Q01DX009 (ip), vehicle: saline with Tween-80): 7 of 10

Compound: Nc1ncnc2c1nnn2C1OC(CO)C(O)C1O (stereo not drawn)
- T/C [5]: 127 % of control [9 of 10 alive]
- T/C (dose: 24.0 mg/kg/injection, schedule: Q01DX009 (ip), vehicle: Klucel (hydroxypropylcellulose) (HPC)): 129 % of control
- survivor count (dose: 48.0 mg/kg/injection, schedule: Q01DX009 (ip), vehicle: Klucel (hydroxypropylcellulose) (HPC)): 10 of 10
- survivor count (dose: 50.0 mg/kg/injection, schedule: Q01DX009 (ip), vehicle: Klucel (hydroxypropylcellulose) (HPC)): 9 of 10
- survivor count (dose: 100.0 mg/kg/injection, schedule: Q01DX009 (ip), vehicle: Klucel (hydroxypropylcellulose) (HPC)): 8 of 10
- survivor count (dose: 200.0 mg/kg/injection, schedule: Q01DX009 (ip), vehicle: Klucel (hydroxypropylcellulose) (HPC)): 0 of 10

Compound: COc1ccc(-c2cc(=O)c3ccc4c(O)cccc4c3o2)cc1
- survivor count (dose: 12.5 mg/kg/injection, schedule: Q01DX009 (ip), vehicle: saline with Tween-80): 9 of 10
- survivor count [2]: 10 of 10
- survivor count [1]: 10 of 10
- survivor count [7]: 9 of 10
- survivor count [6]: 10 of 10

Compound: Cc1cc2nc3c(=O)[nH]c(=O)nc-3n(CC(O)C(O)C(O)C(O)CO)c2cc1C (stereo not drawn)
- survivor count (dose: 400.0 mg/kg/injection, schedule: Q01DX009 (ip), vehicle: suspension in saline): 10 of 10
- survivor count (dose: 800.0 mg/kg/injection, schedule: Q01DX009 (ip), vehicle: suspension in saline): 8 of 10

Compound: c1ccc(OCC2CO2)c(OCC2CO2)c1 (stereo not drawn)
- T/C [2]: 140 % of control
- T/C [1]: 145 % of control
- T/C [7]: 128 % of control [9 of 10 alive]
- survivor count [7]: 7 of 10
- survivor count [6]: 4 of 10

Compound: C#CCNC1=C(C)C(=O)C2=C(C1=O)[C@H](COC(N)=O)[C@]1(OC)[C@@H]3N[C@@H]3CN21
- T/C (dose: 0.75 mg/kg/injection, schedule: Q01DX009 (ip), vehicle: distilled water + Tween-80): 145 % of control
- T/C (dose: 1.5 mg/kg/injection, schedule: Q01DX009 (ip), vehicle: distilled water + Tween-80): 131 and 143 % of control
- T/C [8]: 134 % of control
- survivor count [8]: 10 of 10
- survivor count (dose: 12.5 mg/kg/injection, schedule: Q01DX009 (ip), vehicle: distilled water + Tween-80): 10 of 10
- survivor count (dose: 25.0 mg/kg/injection, schedule: Q01DX009 (ip), vehicle: distilled water + Tween-80): 10 of 10
- survivor count (dose: 50.0 mg/kg/injection, schedule: Q01DX009 (ip), vehicle: distilled water + Tween-80): 6 of 10
- survivor count (dose: 100.0 mg/kg/injection, schedule: Q01DX009 (ip), vehicle: distilled water + Tween-80): 0 of 10

Compound: CC1(C)COCN1COCCOCN1COCC1(C)C
- survivor count [3]: 7 of 10

Compound: CNC(=O)O/N=C(\CN=[N+]=[N-])C(C)(C)C
- survivor count (dose: 2.0 mg/kg/injection, schedule: Q01DX009 (ip), vehicle: saline): 4 of 10

Compound: CN1CCC(c2ccccc2)(c2ccccc2)C(=O)C1
- survivor count [7]: 6 of 10
- survivor count [6]: 0 of 10

Compound: O=C1OCC2(C(=O)O)C(=O)OCC12 (stereo not drawn)
- survivor count [6]: 8 of 10
